The chains behind the UniProt entries cited, without tags or fusion partners.
UniProt P12956, whole entry: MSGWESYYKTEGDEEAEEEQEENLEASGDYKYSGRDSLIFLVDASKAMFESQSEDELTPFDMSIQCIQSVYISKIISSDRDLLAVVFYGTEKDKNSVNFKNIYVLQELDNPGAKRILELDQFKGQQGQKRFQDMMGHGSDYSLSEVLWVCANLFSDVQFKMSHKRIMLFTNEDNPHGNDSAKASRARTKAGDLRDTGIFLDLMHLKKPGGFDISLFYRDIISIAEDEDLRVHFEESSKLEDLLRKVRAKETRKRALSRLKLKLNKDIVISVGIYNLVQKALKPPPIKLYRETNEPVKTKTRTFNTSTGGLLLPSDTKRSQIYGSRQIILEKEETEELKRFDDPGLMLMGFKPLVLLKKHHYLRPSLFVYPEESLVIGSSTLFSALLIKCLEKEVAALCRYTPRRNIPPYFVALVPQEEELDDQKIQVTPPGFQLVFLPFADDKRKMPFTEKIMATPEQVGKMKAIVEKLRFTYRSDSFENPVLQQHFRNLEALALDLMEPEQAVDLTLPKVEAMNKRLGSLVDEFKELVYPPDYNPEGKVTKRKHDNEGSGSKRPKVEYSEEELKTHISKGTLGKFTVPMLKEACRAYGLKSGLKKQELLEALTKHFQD
UniProt P13010, whole entry: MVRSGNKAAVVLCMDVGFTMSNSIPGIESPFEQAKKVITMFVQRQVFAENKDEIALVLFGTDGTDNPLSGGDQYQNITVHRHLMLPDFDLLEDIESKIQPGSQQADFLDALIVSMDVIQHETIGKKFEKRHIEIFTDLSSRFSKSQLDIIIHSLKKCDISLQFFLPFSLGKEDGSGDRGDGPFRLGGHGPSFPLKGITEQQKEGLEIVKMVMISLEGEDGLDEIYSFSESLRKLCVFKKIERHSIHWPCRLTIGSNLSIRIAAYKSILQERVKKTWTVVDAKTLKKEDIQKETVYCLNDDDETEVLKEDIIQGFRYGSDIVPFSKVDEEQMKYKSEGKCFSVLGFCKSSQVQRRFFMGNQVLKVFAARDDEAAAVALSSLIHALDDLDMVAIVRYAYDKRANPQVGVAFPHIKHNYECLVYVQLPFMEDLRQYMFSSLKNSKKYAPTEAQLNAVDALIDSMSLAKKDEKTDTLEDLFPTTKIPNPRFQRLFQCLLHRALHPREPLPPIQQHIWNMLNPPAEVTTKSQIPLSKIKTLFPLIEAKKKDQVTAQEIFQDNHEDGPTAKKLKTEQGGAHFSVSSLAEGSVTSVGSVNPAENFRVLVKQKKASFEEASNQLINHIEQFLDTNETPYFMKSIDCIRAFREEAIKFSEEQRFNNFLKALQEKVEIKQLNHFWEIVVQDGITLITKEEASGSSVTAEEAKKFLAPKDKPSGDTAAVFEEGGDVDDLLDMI

Structures were worked out from names or drawings and are uncertain.
These compounds were tested against Recombinant human Ku heterodimer (Homo sapiens, UniProt P12956+P13010) (assay: Ku-DNA binding assay). Conditions: Table 2, synthesized derivatives; several values in a cell = separate determinations.
With CC1=NN(c2cccc(C(=O)O)c2)C(=O)/C1=C\c1ccc(-c2ccc(Cl)c(C(=O)NCc3ccc(F)cc3)c2)s1 the IC50 was 25 µM.
CC1=NN(c2ccc(S(N)(=O)=O)cc2)C(=O)/C1=C\c1ccc(-c2ccc(Cl)c(C(=O)NCc3ccc(F)cc3)c2)o1 showed an IC50 of 25 µM.
COc1cccc(CNC(=O)c2cc(-c3ccc(/C=C4\C(=O)N(c5ccc(C(=O)O)cc5)N=C4C)o3)ccc2Cl)c1 showed an IC50 of 30 µM.
With CC1=NN(c2cccc(C(=O)O)c2)C(=O)C1Cc1ccc(-c2ccc(Cl)c(C(=O)NCc3ccc(F)cc3)c2)s1 (stereo not drawn) the IC50 was 6 µM.
CC1=NN(c2cccc(C(=O)O)c2)C(=O)/C1=C\c1ccc(-c2ccc(Cl)c(C(=O)NCc3ccccc3Cl)c2)o1 showed an IC50 of 18 µM.
CC1=NN(c2ccc(C(=O)O)cc2)C(=O)/C1=C\c1ccc(-c2ccc(Cl)c(C(=O)NCc3ccccc3)c2)o1 gave an IC50 of 22 µM.
